Article PMC10529755
Results are given in words; binding and its absence hold for the method and conditions named. Binding seen in cells or lysates may run through a third protein. Some entries that bind do so weakly or less than the wild type. One block for each molecule: values may come before it.

Protein sequences, listed by entry. Tags and fused reporters are not part of them. Lines headed by an entry give the natural chain unless they say otherwise; changes in a name come on top. Chains listed by the source or under a name are the forms on record and can include a tag or linker.
UniProt P52480: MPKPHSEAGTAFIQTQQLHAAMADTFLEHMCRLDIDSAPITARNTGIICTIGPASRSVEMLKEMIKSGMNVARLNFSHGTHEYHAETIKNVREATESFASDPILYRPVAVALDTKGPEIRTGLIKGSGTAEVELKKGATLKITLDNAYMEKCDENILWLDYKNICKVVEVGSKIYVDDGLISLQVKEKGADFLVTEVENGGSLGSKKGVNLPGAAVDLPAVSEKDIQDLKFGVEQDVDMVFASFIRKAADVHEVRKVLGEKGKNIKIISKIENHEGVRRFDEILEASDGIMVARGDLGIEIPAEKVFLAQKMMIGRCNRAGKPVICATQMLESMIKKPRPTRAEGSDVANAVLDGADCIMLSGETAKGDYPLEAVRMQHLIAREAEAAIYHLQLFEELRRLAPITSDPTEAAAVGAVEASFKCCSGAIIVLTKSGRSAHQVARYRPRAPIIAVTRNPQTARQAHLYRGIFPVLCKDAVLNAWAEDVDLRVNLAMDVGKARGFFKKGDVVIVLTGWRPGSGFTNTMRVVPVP
PKM1 (P52480-2, form named): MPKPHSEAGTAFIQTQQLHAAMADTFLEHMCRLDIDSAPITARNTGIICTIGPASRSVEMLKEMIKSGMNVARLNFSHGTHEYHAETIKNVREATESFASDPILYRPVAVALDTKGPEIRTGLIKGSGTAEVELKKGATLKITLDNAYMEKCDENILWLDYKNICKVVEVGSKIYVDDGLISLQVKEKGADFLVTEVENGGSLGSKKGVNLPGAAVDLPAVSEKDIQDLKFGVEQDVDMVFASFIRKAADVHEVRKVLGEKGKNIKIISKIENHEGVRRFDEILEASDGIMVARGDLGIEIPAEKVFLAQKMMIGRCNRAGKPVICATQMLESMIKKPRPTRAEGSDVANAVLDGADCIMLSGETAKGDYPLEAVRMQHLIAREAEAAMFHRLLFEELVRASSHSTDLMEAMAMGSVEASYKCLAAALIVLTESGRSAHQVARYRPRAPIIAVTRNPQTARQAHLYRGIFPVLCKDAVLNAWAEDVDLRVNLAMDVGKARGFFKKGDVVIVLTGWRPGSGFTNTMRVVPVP

Columns and labels:
[1] = target: T1, pantothenate kinase 4 (PANK4) (mouse (endogenous in mouse lens epithelium)) (UniProt Q80YV4); experiment: co-IP; WT mouse lens epithelium lysate (300 μg in 500 μL NP40 lysis buffer with PMSF); 5 µg PKM1, PKM2 or PANK4 antibody on SureBeads, IgG as control; 1 h at RT; washed with PBS-T; eluate blotted
T1 sequence: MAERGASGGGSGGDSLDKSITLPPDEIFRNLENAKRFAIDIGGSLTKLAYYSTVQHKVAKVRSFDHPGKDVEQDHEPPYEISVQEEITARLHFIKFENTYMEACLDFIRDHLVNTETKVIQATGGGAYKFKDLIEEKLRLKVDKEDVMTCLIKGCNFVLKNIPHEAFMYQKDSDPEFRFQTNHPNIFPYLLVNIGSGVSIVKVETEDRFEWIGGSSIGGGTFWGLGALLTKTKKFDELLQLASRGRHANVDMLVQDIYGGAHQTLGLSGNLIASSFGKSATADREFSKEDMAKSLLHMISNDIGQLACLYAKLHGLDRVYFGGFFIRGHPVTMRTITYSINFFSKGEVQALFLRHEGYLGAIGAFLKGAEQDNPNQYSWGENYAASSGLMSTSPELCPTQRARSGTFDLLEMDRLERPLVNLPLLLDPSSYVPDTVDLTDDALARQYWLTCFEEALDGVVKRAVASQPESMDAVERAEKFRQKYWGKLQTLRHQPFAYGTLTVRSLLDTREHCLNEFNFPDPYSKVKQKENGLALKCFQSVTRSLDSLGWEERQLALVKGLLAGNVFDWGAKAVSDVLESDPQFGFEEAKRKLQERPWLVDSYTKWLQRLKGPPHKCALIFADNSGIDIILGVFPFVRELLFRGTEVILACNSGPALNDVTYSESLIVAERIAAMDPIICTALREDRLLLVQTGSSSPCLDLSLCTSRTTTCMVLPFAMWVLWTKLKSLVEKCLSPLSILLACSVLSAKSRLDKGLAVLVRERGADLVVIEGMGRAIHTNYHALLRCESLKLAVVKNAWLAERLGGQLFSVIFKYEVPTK

[2] = target: pyruvate kinase M2 isozyme (PKM2) (mouse (endogenous in mouse lens epithelium)) (UniProt P52480); experiment: as above

- binding [1]: binds
Molecule: pyruvate kinase M2 isozyme (PKM2) (from UniProt P52480 1-531)

- binding [1]: no binding
Molecule: PKM1 (from UniProt P52480-2 1-531)

- binding [2]: binds
B1: pantothenate kinase 4 (PANK4) (protein, UniProt Q80YV4 1-820)
chain: T1 sequence
